Three substances from publication PMC13128273 can be followed below.

By UniProt entry, the sequences of proteins in these tests, tags left out.
UniProt O14980: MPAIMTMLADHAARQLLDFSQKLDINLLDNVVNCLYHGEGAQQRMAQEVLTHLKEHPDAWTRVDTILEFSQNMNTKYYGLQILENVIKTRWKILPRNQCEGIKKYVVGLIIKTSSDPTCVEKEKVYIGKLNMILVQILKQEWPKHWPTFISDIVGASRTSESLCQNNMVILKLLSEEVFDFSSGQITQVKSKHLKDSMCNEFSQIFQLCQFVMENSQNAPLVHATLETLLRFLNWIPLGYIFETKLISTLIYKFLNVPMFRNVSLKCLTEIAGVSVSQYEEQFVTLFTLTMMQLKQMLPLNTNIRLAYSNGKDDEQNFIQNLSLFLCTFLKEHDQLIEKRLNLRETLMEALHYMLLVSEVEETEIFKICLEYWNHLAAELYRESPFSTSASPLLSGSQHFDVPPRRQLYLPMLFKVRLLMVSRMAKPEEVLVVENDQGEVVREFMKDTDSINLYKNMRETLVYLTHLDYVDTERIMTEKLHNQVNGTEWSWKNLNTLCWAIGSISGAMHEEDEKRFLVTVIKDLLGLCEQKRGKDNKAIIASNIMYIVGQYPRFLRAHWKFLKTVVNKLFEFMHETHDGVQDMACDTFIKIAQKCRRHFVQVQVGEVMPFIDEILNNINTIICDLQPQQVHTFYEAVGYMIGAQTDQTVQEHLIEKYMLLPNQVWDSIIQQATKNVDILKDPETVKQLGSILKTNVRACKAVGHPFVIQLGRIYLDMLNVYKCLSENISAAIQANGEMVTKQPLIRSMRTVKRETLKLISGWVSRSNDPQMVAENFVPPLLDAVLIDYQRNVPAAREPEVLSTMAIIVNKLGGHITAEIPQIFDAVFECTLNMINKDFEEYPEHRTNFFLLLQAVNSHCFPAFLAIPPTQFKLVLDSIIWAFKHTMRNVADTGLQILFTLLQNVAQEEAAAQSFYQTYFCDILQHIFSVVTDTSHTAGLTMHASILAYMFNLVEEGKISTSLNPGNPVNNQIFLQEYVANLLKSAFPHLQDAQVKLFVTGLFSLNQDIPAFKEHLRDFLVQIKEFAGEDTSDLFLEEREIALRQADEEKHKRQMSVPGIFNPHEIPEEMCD
UniProt Q12894: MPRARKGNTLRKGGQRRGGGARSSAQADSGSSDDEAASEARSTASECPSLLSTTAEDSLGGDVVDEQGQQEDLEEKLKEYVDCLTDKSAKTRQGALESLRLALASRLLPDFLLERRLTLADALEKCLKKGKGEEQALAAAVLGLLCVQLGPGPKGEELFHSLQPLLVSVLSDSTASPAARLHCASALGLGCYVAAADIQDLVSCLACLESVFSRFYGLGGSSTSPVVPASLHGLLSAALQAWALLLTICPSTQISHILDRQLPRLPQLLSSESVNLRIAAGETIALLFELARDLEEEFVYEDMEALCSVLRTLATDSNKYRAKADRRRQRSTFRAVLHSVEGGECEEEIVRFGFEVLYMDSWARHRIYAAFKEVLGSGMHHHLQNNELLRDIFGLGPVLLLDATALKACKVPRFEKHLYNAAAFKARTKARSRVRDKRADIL
UniProt Q71RC2: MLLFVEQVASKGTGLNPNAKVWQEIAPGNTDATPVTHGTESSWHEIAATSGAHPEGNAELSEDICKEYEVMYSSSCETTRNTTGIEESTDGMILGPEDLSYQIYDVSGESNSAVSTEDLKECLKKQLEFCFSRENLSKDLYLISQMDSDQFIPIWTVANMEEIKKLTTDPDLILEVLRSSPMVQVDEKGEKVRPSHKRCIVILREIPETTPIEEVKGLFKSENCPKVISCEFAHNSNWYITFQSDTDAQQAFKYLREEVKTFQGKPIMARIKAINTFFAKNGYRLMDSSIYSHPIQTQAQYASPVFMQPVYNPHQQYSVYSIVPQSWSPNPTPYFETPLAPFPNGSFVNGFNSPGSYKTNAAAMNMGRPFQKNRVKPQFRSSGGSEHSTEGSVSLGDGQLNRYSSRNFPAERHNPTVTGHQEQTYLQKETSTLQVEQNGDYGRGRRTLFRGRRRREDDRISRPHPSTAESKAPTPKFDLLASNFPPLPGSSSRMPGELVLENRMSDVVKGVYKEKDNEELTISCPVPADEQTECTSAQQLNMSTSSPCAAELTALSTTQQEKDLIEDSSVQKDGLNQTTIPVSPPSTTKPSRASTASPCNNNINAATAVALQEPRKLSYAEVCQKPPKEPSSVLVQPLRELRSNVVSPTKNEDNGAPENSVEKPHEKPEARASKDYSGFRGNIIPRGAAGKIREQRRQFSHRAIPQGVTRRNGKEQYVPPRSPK

These are yes or no findings as the source states them, for the method shown. Binding seen in cells or lysates may run through a third protein. Here binding means that the protein was enriched with, or labelled near, the bait; the list need not be complete. A no says only that the protein was not detected with the bait. Tags and fused reporters may be left off the sequences shown.

The target of the test is T1, HERC5-3×FLAG (wild type) (human) (UniProt Q9UII4).
T1 sequence: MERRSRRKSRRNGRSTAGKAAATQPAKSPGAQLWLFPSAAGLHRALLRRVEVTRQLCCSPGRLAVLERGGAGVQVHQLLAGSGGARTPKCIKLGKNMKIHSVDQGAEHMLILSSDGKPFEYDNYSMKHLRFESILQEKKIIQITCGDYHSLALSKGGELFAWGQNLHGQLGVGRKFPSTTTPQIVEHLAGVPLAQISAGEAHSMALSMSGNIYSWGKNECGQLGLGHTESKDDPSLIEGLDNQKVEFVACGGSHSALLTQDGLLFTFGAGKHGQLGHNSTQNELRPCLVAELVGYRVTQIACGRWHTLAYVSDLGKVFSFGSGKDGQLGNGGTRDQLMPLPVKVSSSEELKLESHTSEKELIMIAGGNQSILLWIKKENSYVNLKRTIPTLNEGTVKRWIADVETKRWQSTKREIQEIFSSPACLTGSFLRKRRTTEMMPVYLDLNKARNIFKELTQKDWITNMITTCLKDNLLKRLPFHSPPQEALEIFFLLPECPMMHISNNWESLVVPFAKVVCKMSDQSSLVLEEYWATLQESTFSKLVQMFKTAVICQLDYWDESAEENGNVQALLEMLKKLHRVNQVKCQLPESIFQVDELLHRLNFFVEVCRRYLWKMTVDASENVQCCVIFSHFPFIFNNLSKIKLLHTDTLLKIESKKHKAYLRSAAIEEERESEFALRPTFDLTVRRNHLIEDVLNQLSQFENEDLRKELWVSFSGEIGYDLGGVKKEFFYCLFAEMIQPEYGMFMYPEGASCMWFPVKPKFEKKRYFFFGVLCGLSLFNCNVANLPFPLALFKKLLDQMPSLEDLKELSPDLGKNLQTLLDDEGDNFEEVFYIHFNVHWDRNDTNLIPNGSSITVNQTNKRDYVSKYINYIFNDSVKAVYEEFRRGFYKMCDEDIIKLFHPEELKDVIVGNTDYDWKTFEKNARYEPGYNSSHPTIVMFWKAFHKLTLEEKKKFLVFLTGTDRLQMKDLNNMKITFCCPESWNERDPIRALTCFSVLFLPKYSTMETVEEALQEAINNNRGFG
Description: affinity purification with mass spectrometry; HERC5-3×FLAG WT or C994A precipitated with anti-FLAG M2 from transfected HEK293T lysate (Lysis150 buffer), eluted with 3×FLAG peptide, SDS–PAGE, in-gel trypsin digestion, LC–MS/MS with label-free quantification; HERC5-3×MYC as negative control.

As to CRM1 (from UniProt O14980 1-1071), the binding entry is “no binding”. IFRD2 (from UniProt Q12894 1-442): the binding entry is “binds”. To LARP4 (from UniProt Q71RC2 1-724) belongs “binds”.
